Measurements as given in PMC3557383.
Protein sequences can lack the tags named with them.

Molecular target: T1, RepA (ORF3) (Moraxella bovis ATCC 10900 (plasmid pMbo4.6)) (UniProt D0V0D3)
T1 sequence (looked up): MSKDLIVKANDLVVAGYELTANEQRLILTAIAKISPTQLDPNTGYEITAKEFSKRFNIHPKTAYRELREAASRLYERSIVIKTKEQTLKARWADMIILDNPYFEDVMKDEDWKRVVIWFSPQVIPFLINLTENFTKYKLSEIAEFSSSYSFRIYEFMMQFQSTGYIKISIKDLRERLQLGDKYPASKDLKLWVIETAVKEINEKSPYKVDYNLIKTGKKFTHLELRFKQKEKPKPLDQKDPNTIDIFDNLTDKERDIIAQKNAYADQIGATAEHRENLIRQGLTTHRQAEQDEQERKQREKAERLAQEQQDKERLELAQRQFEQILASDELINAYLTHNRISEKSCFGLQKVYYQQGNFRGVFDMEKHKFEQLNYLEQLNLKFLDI
Assay: EMSA
Settings: 50-800 ng RepA, 90 ng DNA; 10 mM Tris-HCl pH 7.5, 10 mM MgCl2, 100 mM NaCl, 0.2 mM DTT, 5% glycerol, 30 ul, 22 C 20 min; 6% PAGE 0.4x TBE at 4 C; recombinant protein; residues 1-386; probe letters rebuilt from the primers and the genome

## AAGAATTCGGGCGTGGTTTTGGGGATTGATTTTGTTTTGTCTTTTTAGCTAAAAAAACAAGAAAATTAACAAGAAAAAGAGCCAAAACCGAGTGCTTTTTCGGTTTTGGCGTTTTTTTATTTTTTTAATATATTTTTAATAGTTTTTAGACCCCCTGCAAAGCCTTATGTATCAAAGGTTTGCGAGACCTAACTAGGAGGGATTGACTACCAAATAGGAGGGATTGACTACTCAAATAGGAGGGATTGACTACTCAAATAGGAGGGATTGACTACCAAATAGGAGTATTTACAATAACTCTTTTTAGGTGTATAATTAATTACTCCTTTTTTGCTAATGAGACCTAAAAATGAGCAAAGATTTAATTGTAGGATCCAA (double strand) [orirep35]
  binding result: binds
